Experimental data reported in US20250144131A1, “POLYSACCHARIDE COMPOUND WITH A DEFINED MOLECULAR STRUCTURE FOR THE TREATMENT OF PULMONARY FIBROSIS” (SHENZHEN YANDAI INVESTMENT CO., LTD, priority 2023, published 2025).

Key:
[1] = Spleen and thymus indices in 4T1 breast tumor-bearing mice; assay type: in vivo, BALB/c mice; settings: cisplatin 4 mg/kg
[2] = Spleen and thymus indices in H22-bearing mice; assay type: in vivo, C57 mice; settings: cisplatin group

Compound: N.N.[Cl][Pt][Cl] [Cisplatin, cisplatin]
- Spleen index [1]: 4.2 ± 0.3 ^ mg/g
- Thymus index [1]: 0.06 ± 0.04 mg/g
- Spleen index [2]: 2.5 ± 0.1^+ mg/g
- Thymus index [2]: 0.3 ± 0.1*^+ mg/g

Marks after values point to notes of the source that are not given here.
